# Assay results from the supplement of paper PMC3334620.
# In all, about 33,000 sequences were measured (“E-score (-0.5 to 0.5)”: median about -0.0014, highest 2% from about 0.25 on). The list shows a part of the results.
# Molecular target: T1, Cad1 (UniProt P24813)
# T1 sequence: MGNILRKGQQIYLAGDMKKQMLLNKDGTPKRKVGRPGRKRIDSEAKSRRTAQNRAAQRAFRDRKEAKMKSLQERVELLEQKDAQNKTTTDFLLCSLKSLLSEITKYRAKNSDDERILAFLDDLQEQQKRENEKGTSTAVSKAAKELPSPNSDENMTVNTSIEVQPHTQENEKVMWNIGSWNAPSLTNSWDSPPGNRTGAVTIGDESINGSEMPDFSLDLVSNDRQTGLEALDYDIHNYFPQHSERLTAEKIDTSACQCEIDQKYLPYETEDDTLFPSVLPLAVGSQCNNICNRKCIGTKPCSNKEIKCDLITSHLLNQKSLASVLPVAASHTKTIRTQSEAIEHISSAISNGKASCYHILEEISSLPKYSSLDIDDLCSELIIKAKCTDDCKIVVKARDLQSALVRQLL
# Assay: PBM E-score (8-mer binding enrichment) (E-score (-0.5 to 0.5)); higher = stronger / more preferred TF binding
# Conditions: protein concentration: 100 nM; construct: GST-full length
# In short: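 For each ungapped eight-base word taken together with its reverse complement, the Universal PBM Analysis Suite assigned an E-score. Binding data came from GST-tagged yeast transcription factors, applied at about 100-200 nM, on universal all-10-mer Agilent arrays made double-stranded by primer extension. Fluorescent anti-GST marked bound protein, and scans were normalised with masliner.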
row,Sequence,PBM E-score
1,ACCACAGG,-0.227
2,AACCTCAT,0.0743
3,GCAACAGA,0.053
4,ATGGAATC,0.246
5,CTCACCAA,0.0934
6,ACGTGCGA,-0.204
7,ATTTGTCC,0.253
8,ATCAAGAG,0.0956
9,CAGCACCC,-0.205
10,GCTGGCAC,-0.069
11,ATTGGACC,-0.0465
12,GTCTCTAA,-0.0666
13,CCAAAGCC,-0.22
14,CCGTCTAG,-0.128
15,ACACAGTC,-0.0166
16,AACCGCAA,0.0521
17,CTGATGCC,0.0515
18,CTTTCTCC,-0.243
19,CTAATCAC,0.326
20,ACTACATA,0.0142
21,GTTCCCGA,-0.087
22,GCCCTAAC,0.155
23,AAGGACTG,-0.0258
24,CTCATGGC,-0.0384
25,TAGCTATA,-0.0378

row,Sequence,PBM E-score
1,GCATGTCA,0.0455
2,CCCTCCGG,-0.252
3,GGCCGAAC,-0.055
4,CGTCGAAA,0.209
5,GCTTCAAC,-0.078
6,GAGGTGAA,-0.075
7,CCAAAGAG,-0.144
8,TCGTATAA,0.148
9,AAATAACC,-0.106
10,AATTTTGG,0.149
11,AGAGGAGG,-0.228
12,ATACGCCA,-0.0655
13,CACGCCCA,-0.0284
14,CGGCGGGA,-0.175
15,AAGGAATA,0.154
16,CAACCGTG,0.00095
17,CCCACATC,-0.119
18,ACGAGTAC,0.0399
19,CCTCAGCC,-0.202
20,GGTCAACC,-0.0724
21,AGATTACA,0.143
22,GCTAAACC,-0.153
23,GAGAGCAA,-0.0855
24,AGCTTTAA,0.0334
25,GAATCGTA,0.0597

row,Sequence,PBM E-score
1,GTTCGCGA,0.212
2,ACTAAGAC,0.0188
3,ACCGAGAC,-0.00882
4,AGTTATAC,0.0622
5,GAGCCGCC,-0.142
6,CTGTCCCA,-0.0681
7,CTCGTCAA,-0.0823
8,CGAATACG,0.121
9,CAACCTCG,0.0729
10,CGGCATCC,-0.027
11,AAGCAGGT,-0.108
12,ACCGGAGC,-0.168
13,ACCTCCCT,-0.18
14,CTTCCCTC,-0.233
15,ACGCCACA,0.0464
16,CTGTAAAC,-0.219
17,TAGAGGGA,-0.182
18,CGTATACC,-0.2
19,CCAATCTA,0.0946
20,AATCCCGC,0.0701
21,AGTAAGTC,0.168
22,TACCAACA,0.0974
23,TCTGTGCA,0.162
24,TGGAGAAA,-0.151
25,GCCTGACA,-0.117

row,Sequence,PBM E-score
1,CTATCTAC,0.154
2,AACATTTG,-0.238
3,CTAGCTTC,0.0393
4,ACATCTCT,-0.156
5,AGTCGTCA,-0.0732
6,AAAACGCG,0.224
7,GGCAAAAA,0.163
8,GGAGGGTA,-0.0609
9,CCCTACAA,-0.14
10,TGGCCAAA,0.137
11,ACCACCTC,-0.078
12,GATCGTAC,-0.0816
13,AAGGTCCG,-0.0449
14,CAGTTTCC,-0.0956
15,GATTCGCC,0.0401
16,CGCCAGTA,-0.115
17,CCCCTCCC,-0.199
18,ATGGCCCA,0.0199
19,TAAAAGTA,0.176
20,AATCAAGA,0.183
21,ATAGGACG,0.00938
22,AGCCACCT,-0.159
23,GGCTACCA,-0.0708
24,ATGATTAG,0.094
25,TGATAAAA,0.111

row,Sequence,PBM E-score
1,GATTTCAA,0.013
2,GGTTCTGA,0.133
3,GCCGTGAC,0.102
4,GCATGCGA,0.225
5,CGTTACGA,0.111
6,CGTCGCAG,0.101
7,AGCCCAAC,-0.189
8,AGTCATCA,0.0969
9,ATCGACTC,-0.153
10,CAATGATG,-0.0763
11,CCCGGTGA,-0.209
12,GGATGGTA,0.16
13,GGACATTA,0.218
14,ACGTAACC,0.0866
15,CATCTTGA,-0.0628
16,ACTGACCG,-0.108
17,AACGCATT,0.131
18,CAGGGCGA,-0.00695
19,GGGACGAA,-0.108
20,ATCTTGAG,-0.149
21,GGAGATAC,-0.0445
22,CTTCCCGA,0.0789
23,CGTGACAA,0.039
24,CCCGAAAA,-0.0489
25,AGTGTGCC,0.0333

row,Sequence,PBM E-score
1,CGGGGGTA,-0.251
2,CATGTACC,-0.192
3,GCCTGCCA,0.033
4,AATGCTGT,-0.00176
5,AGGCTAAT,0.0951
6,CACGCTTA,0.226
7,CATAAGAC,0.00465
8,ATGGGTAG,-0.149
9,TGACCGAA,0.041
10,ACTGTAAA,0.0881
11,AAACCAAA,-0.0292
12,GCAGCACA,0.0775
13,GGCAGTAA,0.00948
14,GCCGACAC,0.0111
15,GAGGATTA,0.147
16,CTTCGATA,0.00144
17,GAACTTGC,-0.0085
18,ACCCGGAG,0.229
19,CGTGGGGC,-0.113
20,AAGCTAAT,0.224
21,AGTTATCG,0.225
22,CTGTGTAC,0.079
23,ACCAACAT,0.14
24,GCCGCCTA,-0.106
25,CCGTACTC,-0.0921

# 6 entries picked at random from the list so far:
row,Sequence,PBM E-score
6,CACGCTTA,0.226
15,GAGGATTA,0.147
16,CTTCGATA,0.00144
2,CATGTACC,-0.192
25,CCGTACTC,-0.0921
5,AGGCTAAT,0.0951

# More entries follow:

row,Sequence,PBM E-score
1,GGTCACCA,-0.342
2,CTATCGAG,0.0129
3,CAGATCCA,0.0809
4,CAGGTGAA,0.0221
5,CCAGCGAA,-0.145
6,CCAAAACC,-0.0108
7,ACTGTCTG,-0.134
8,AAATAGTA,0.181
9,GTCAACAA,0.0597
10,AGCCAGCC,-0.165
11,ATGCACCC,-0.0452
12,ACATGGAC,-0.043
13,AGCCCACA,-0.13
14,GGGGTATA,-0.158
15,CGGCATTC,-0.018
16,GGACAAAA,0.0884
17,CACTCGAC,0.0744
18,CTGGGAAG,-0.0327
19,AAAGGGCC,-0.246
20,CAAATGTC,-0.055
21,TCATTTCA,-0.0423
22,CTGAGAAC,0.0127
23,ATTGGCGC,-0.0169
24,CCAGGGCC,-0.14
25,GGAATGGA,-0.11

# Shown tab-delimited: part of the list above
row	Sequence	PBM E-score
6	AAAACGCG	0.224
18	ACCCGGAG	0.229
9	GTCAACAA	0.0597

# Following part

row,Sequence,PBM E-score
1,AGACCGAG,-0.173
2,GCGAATAA,0.0329
3,AAGTCCAG,-0.0379
4,AAAAAGAG,-0.15
5,ACTTAAGC,0.106
6,CGGGACGA,0.0472
7,AATTCTAC,0.138
8,ACGATAAG,0.0346
9,ACGGGCTA,-0.21
10,GCTTGCAA,0.172
11,TAATCTCA,0.0993
12,ACATGGCG,-0.147
13,ATAGGTAG,0.0553
14,AAGTTAAA,0.2
15,CCGCGACG,0.198
16,CTTCTGAA,0.0469
17,AGCTGTCC,-0.0506
18,TACGAAAA,0.0721
19,ACTAAAAC,0.116
20,CCCCGACC,-0.206
21,CGGCAACA,0.108
22,AATAATGC,0.242
23,CGTCACCA,-0.0123
24,AAACCTGC,0.0617
25,TACGCCTA,-0.0619

# Part of the list above in another layout:
row	Sequence	PBM E-score
22	CTTCCCGA	0.0789
23	CGTGACAA	0.039
24	CCCGAAAA	-0.0489
25	AGTGTGCC	0.0333
1	CGGGGGTA	-0.251

# Following part:

row,Sequence,PBM E-score
1,AGAGTTTG,0.0139
2,GGGTGTCA,-0.0261
3,TAGAGCGA,-0.114
4,CGGATCTA,0.0112
5,CTCTTACA,-0.0393
6,CGGAGCAA,-0.127
7,ACACGCCA,0.0485
8,ACTCCCGC,-0.0846
9,ATGTAAAC,0.211
10,GCCCGCAA,0.129
11,AAAGGACT,-0.224
12,GTTCGCCA,-0.171
13,GAATAGGA,-0.038
14,ATCATCAT,0.0935
15,AAACTAAG,0.166
16,ACAGATAT,0.0957
17,ACGTTTCG,-0.0535
18,CATCAAAA,-0.00359
19,ATGCTGAA,0.0202
